In PubChem BioAssay AID328 (DTP/NCI, 2004) one finds T/C and survivor count data, which are given here for 24 compounds.

In the experiment the test system is BDF1 mice, P388 leukemia ip, median survival T/C. Nature of the experiment: NCI In Vivo Anticancer Drug Screen. Data for tumor model P388 Leukemia (intraperitoneal) in B6D2F1 (BDF1) mice. The conditions noted are these: T/C endpoint: median survival time, higher T/C = longer survival. In outline: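 Transplantable tumour in mice; compound vs vehicle dosing; survival scored; ratio of treated to control reported.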

The mark [1] stands for this setting: dose: 100.0 mg/kg/injection, schedule: Q01DX009 (ip), vehicle: saline.
Setting [2] is: dose: 200.0 mg/kg/injection, schedule: Q01DX009 (ip), vehicle: saline.
[3] abbreviates: dose: 50.0 mg/kg/injection, schedule: Q01DX009 (ip), vehicle: saline.

The list does not hold the whole screen: it gathers tests that were run many times, whatever their T/C, doses with no T/C, and many T/C values between a quarter and a half above the control. Further doses and runs are listed elsewhere. T/C: endpoint of the treated group in % of that of the vehicle group. Some entries give survivors of the animals treated and no T/C: the source holds a T/C of zero for them, seemingly a mark for toxic or unscored doses. Some survivor counts are full or nearly so, which does not show that the dose was tolerated: the source hardly ever lists a survival T/C far under the control, and the zero likely stands for such cases as well. Survivors were counted at the toxicity check, usually on the fifth day, unless a day is given; later deaths do not show. Schedules are NCI's codes, taken here to give the interval after Q, in days (D) or hours (H), and the number of doses after X. Some molecules as drawn cover several salts, stereoisomers or complexes of the source; a dose is that of the sample tested. Some doses were run more than once; the results are listed from low to high. Where survival is the endpoint, this PubChem deposit counts one and a half times the control or more as active, and values a quarter to a half above the control carry no call in these data; other NCI protocols may use other cut-offs. Some T/C values are followed by the survivors on the day toxicity was checked, most often the fifth; without a count, all were alive then.

`O=C(O)c1c2c(nc3ccccc13)Cc1ccccc1-2`: the T/C by setting is: (dose: 50.0 mg/kg/injection, schedule: Q01DX009 (ip), vehicle: water) 125 % of control; under setting [1], 128 % of control. Besides, the survivor count runs as follows: under setting [2], 0 of 6; (dose: 200.0 mg/kg/injection, schedule: Q01DX009 (ip), vehicle: water) 4 of 6; (dose: 300.0 mg/kg/injection, schedule: Q01DX009 (ip), vehicle: Klucel (hydroxypropylcellulose) (HPC)) 4 of 6; (dose: 300.0 mg/kg/injection, schedule: Q01DX009 (ip), vehicle: saline) 0 of 6; (dose: 400.0 mg/kg/injection, schedule: Q01DX009 (ip), vehicle: water) 0 of 6.

As to `CCCCCCCCCCCCCCCCOCCCCCCCCCCCCCCCC`, the survivor count reads like this: (dose: 400.0 mg/kg/injection, schedule: Q01DX009 (ip), vehicle: other) 6 of 6; (dose: 400.0 mg/kg/injection, schedule: Q04DX003 (ip), vehicle: other) 6 of 6.

Turning to `COc1cc(C=NC(CO)C(=O)O)ccc1O.COc1cc(C=NC(CO)C(=O)O)ccc1O.[Fe]` (stereo not drawn), the survivor count (dose: 400.0 mg/kg/injection, schedule: Q01DX009 (ip), vehicle: saline) is recorded as 6 of 6.

On to `C=CCC1CCSC1=O` (stereo not drawn), for which the survivor count (dose: 200.0 mg/kg/injection, schedule: Q04DX003 (ip), vehicle: saline with Tween-80) was 1 of 6 and 2 of 6; the survivor count (dose: 400.0 mg/kg/injection, schedule: Q04DX003 (ip), vehicle: saline with Tween-80) is 0 of 6.

On to `O=NN(CCCl)C(=O)NC1CC2CCC1C2` (stereo not drawn), for which the T/C (dose: 50.0 mg/kg/injection, schedule: Q04DX003 (ip), vehicle: saline with Tween-80) was 131 % of control.

Turning to `Cc1ccc(N(OC(=O)c2ccccc2)C(C)(C)C)cc1`, the survivor count (dose: 200.0 mg/kg/injection, schedule: Q04DX002 (ip), vehicle: saline with Tween-80) is recorded as 6 of 6 and the survivor count (dose: 400.0 mg/kg/injection, schedule: Q04DX002 (ip), vehicle: saline with Tween-80) is given as 1 of 6.

Take `CC(=O)c1ccc[n+](C)c1`: the survivor count under setting [3] was 6 of 6.

Regarding `CCCCCCCCC[N+]12CC[N+](CCCCCCCCC)(CC1)CC2`, the survivor count is given as 0 of 6 under setting [3], 0 of 6 under setting [1] and 0 of 6 under setting [2].

Consider `CC1=CCC2C(=O)C=CC(=O)C2C1` (stereo not drawn), for which the T/C runs as follows: (dose: 1.3 mg/kg/injection, schedule: Q01DX009 (ip), vehicle: Klucel (hydroxypropylcellulose) (HPC)) 127 % of control; (dose: 3.12 mg/kg/injection, schedule: Q01DX009 (ip), vehicle: Klucel (hydroxypropylcellulose) (HPC)) 125 % of control; (dose: 6.25 mg/kg/injection, schedule: Q01DX009 (ip), vehicle: Klucel (hydroxypropylcellulose) (HPC)) 125 % of control. The survivor count (dose: 20.0 mg/kg/injection, schedule: Q04DX003 (ip), vehicle: Klucel (hydroxypropylcellulose) (HPC)) is 3 of 6; the survivor count (dose: 28.0 mg/kg/injection, schedule: Q01DX009 (ip), vehicle: Klucel (hydroxypropylcellulose) (HPC)) is on record as 4 of 6; the survivor count (dose: 40.0 mg/kg/injection, schedule: Q01DX009 (ip), vehicle: Klucel (hydroxypropylcellulose) (HPC)) is 1 of 6; the survivor count (dose: 40.0 mg/kg/injection, schedule: Q04DX003 (ip), vehicle: Klucel (hydroxypropylcellulose) (HPC)) was 0 of 6.

With `O=NN(CS(=O)(=O)O)c1ccccc1`, under “dose: 400.0 mg/kg/injection, schedule: Q01DX009 (ip), vehicle: Klucel (hydroxypropylcellulose) (HPC)”, the survivor count was 5 of 6.

As to `C=CCN1c2ccccc2Sc2cnccc21`, the survivor count (dose: 400.0 mg/kg/injection, schedule: Q01DX009 (ip), vehicle: saline with Tween-80) is given as 1 of 6.

With `Cc1n(CC(C)C)c2c([n+]1CC(=O)c1ccc([N+](=O)[O-])cc1)C(=O)c1ccccc1C2=O`, the survivor count (dose: 10.0 mg/kg/injection, schedule: Q01DX010 (ip), vehicle: saline) was 1 of 6.

With `BrCCN(CCBr)c1ccc2c3c(cccc13)-c1ccccc1-2`, the T/C is 145 % of control (dose: 1.56 mg/kg/injection, schedule: Q01DX009 (ip), vehicle: Klucel (hydroxypropylcellulose) (HPC)); 146 % of control (dose: 13.0 mg/kg/injection, schedule: Q01DX009 (ip), vehicle: Klucel (hydroxypropylcellulose) (HPC)); 130 % of control (dose: 105.0 mg/kg/injection, schedule: Q01DX009 (ip), vehicle: Klucel (hydroxypropylcellulose) (HPC)). For the same compound, where the note is “dose: 264.0 mg/kg/injection, schedule: Q04DX003 (ip), vehicle: saline with Tween-80”, the survivor count was 6 of 6.

On to `CCCCCCCCCCCCCCCCSCCCCCCCCCCCSCCCCCCCCCCCCCCCC`, for which the survivor count (dose: 100.0 mg/kg/injection, schedule: Q01DX001 (ip), vehicle: saline sonified) is 6 of 6.

For `c1ccc2c(Nc3ccc(C4=NCCN4)cc3)nnc(Nc3ccc(C4=NCCN4)cc3)c2c1`, the T/C (dose: 100.0 mg/kg/injection, schedule: Q04DX003 (ip), vehicle: saline with Tween-80) is 140 % of control [4 of 6 alive]. For the same compound, the survivor count (dose: 150.0 mg/kg/injection, schedule: Q04DX003 (ip), vehicle: saline with Tween-80) is 0 of 6.

As to `CN(C)P(=O)(N(C)C)N(C)CCN(C)P(=O)(N(C)C)N(C)C`, the survivor count reads like this: under setting [1], 4 of 6; under setting [2], 1 of 6.

In the case of `CCOC(=O)C(Cc1ccc(N(CCCl)CCCl)cc1)NP1(=O)NCCCO1` (stereo not drawn), the T/C reads like this: (dose: 4.0 mg/kg/injection, schedule: Q04DX003 (ip), vehicle: Klucel (hydroxypropylcellulose) (HPC)) 126 % of control; (dose: 6.0 mg/kg/injection, schedule: Q04DX003 (ip), vehicle: Klucel (hydroxypropylcellulose) (HPC)) 130 % of control. Further, the survivor count runs as follows: (dose: 50.0 mg/kg/injection, schedule: Q01DX009 (ip), vehicle: Klucel (hydroxypropylcellulose) (HPC)) 6 of 6; (dose: 100.0 mg/kg/injection, schedule: Q01DX009 (ip), vehicle: Klucel (hydroxypropylcellulose) (HPC)) 5 of 6; (dose: 200.0 mg/kg/injection, schedule: Q01DX009 (ip), vehicle: Klucel (hydroxypropylcellulose) (HPC)) 0 of 6.

Regarding `CSc1nc2n(C)cc(C)cc-2c(=O)n1`, the survivor count runs as follows: (dose: 200.0 mg/kg/injection, schedule: Q01DX001 (ip), vehicle: suspension in saline) 3 of 6; (dose: 400.0 mg/kg/injection, schedule: Q01DX001 (ip), vehicle: suspension in saline) 3 of 6.

`COc1cc2cc3c4cc(OC)c(OC)cc4cc[n+]3cc2cc1OC`: the T/C runs as follows: (dose: 20.0 mg/kg/injection, schedule: Q01DX009 (ip), vehicle: saline with Tween-80) 136 % of control; (dose: 20.0 mg/kg/injection, schedule: Q04DX003 (ip), vehicle: saline) 129 % of control; (dose: 40.0 mg/kg/injection, schedule: Q04DX003 (ip), vehicle: saline with Tween-80) 127 % of control; (dose: 80.0 mg/kg/injection, schedule: Q01DX009 (ip), vehicle: saline with Tween-80) 127 % of control; (dose: 80.0 mg/kg/injection, schedule: Q04DX003 (ip), vehicle: saline with Tween-80) 136 % of control.

For `CC(C)(C#N)N=NC(C)(C)C#N`, the survivor count was 0 of 6 (dose: 75.0 mg/kg/injection, schedule: Q01DX009 (ip), vehicle: Klucel (hydroxypropylcellulose) (HPC)) and 0 of 6 (dose: 115.0 mg/kg/injection, schedule: Q01DX009 (ip), vehicle: Klucel (hydroxypropylcellulose) (HPC)).

As to `O=[N+]([O-])c1ccc(C2=C[P+](c3ccccc3)(c3ccccc3)C=C(c3ccccc3)O2)cc1`, the survivor count (dose: 50.0 mg/kg/injection, schedule: Q01DX005 (ip), vehicle: saline with Tween-80) is 0 of 5; the survivor count (dose: 100.0 mg/kg/injection, schedule: Q01DX005 (ip), vehicle: saline with Tween-80) was 0 of 5; the survivor count (dose: 200.0 mg/kg/injection, schedule: Q01DX005 (ip), vehicle: saline with Tween-80) is given as 0 of 5.

For `O=C(Nc1ccc(NC(=O)Nc2cccc(C3=NCCCN3)c2)cc1)Nc1ccc(C2=NCCCN2)cc1`, the survivor count (dose: 15.0 mg/kg/injection, schedule: Q01DX009 (ip), vehicle: saline with Tween-80) is reported as 5 of 6.

For the compound `O=C(C=C(C(F)(F)F)C(F)(F)F)c1ccco1`, the survivor count (dose: 25.0 mg/kg/injection, schedule: Q01DX009 (ip), vehicle: saline with Tween-80) was 0 of 6.

As for `CC(C)CC(NC(=O)C(O)C(N)Cc1ccccc1)C(=O)O` (stereo not drawn), the survivor count (dose: 300.0 mg/kg/injection, schedule: Q01DX009 (ip), vehicle: saline with Tween-80) is 0 of 6 and 3 of 6.
